Reference: PubChem BioAssay AID1671195 (Yale University, 2021)
Test: 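Knockdowns that increase or decrease uptake of fluorescent LDL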 (primary screen). System: human Huh7 hepatoma cells. Reagents: siRNA pool against human genes, 18 nM. Timing: about 2 to 2.5 days of knockdown, then 8 h LDL uptake. Treatment: DiI-labelled LDL at 30 µg/ml for 8 h, in lipoprotein-deficient serum medium. Measurement: 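Fluorescent LDL signal imaged in cells, scaled to the plate median, robust z-score for each replicate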. Scale: robust z-score: higher = more LDL uptake after knockdown. Call rule: 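a gene counts as active if at least two replicate z-scores exceed ±2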.
Here is an unselected part of about 22,000 reagents tested. About 1,510 of all reagents (6.9%) were called active. 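Active includes knockdowns raising or lowering LDL uptake; positive z-scores mean more uptake, negative mean less.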 Reagent sequences are not shown.

Gene	robust z-score, replicate 1	robust z-score, replicate 2	robust z-score, replicate 3	call
QRICH2	-0.565	0.4	0.452	inactive
FCN1	-0.147	-0.182	0.208	inactive
PCDHA12	-0.441	-0.0643	-0.0585	inactive
CER1	-0.108	-0.708	0.0718	inactive
L3MBTL4	1.67	1.46	1.53	inactive
POU4F3	1.26	1.57	1.06	inactive
LOC391717 (retired record)	1.18	1.34	1.14	inactive
ATMIN	0.208	-0.086	0.254	inactive
GDF11	0.359	-0.937	-0.561	inactive
PTS	0.0792	-0.23	-0.192	inactive
PPP1R10	-1.29	-0.886	-1.03	inactive
PDE11A	-0.443	-1.16	-0.821	inactive
DYRK1A	0.905	0.463	0.2	inactive
ABCD1	-0.144	0.438	-0.459	inactive
POLR2D	-0.332	-0.274	-0.17	inactive
LOC388496 (retired record)	-0.142	-0.194	0.0208	inactive
NARF	0.285	0.659	0.114	inactive
MORF4L1	-1.22	0.564	-0.857	inactive
RASD2	-0.0766	-0.661	1.37	inactive
MEOX1	1.89	2.55	1.29	inactive
GPHRB	0.314	-0.62	0.0806	inactive
UBTD2	1	0.383	0.348	inactive
TMOD1	-1.66	-2.61	-1.22	inactive
CCL18	-0.683	-0.407	0.0694	inactive
MYOZ1	-1.25	-0.527	-0.556	inactive
TMEM202	1.04	1.52	1.5	inactive
DPCD	1.12	1.34	1.07	inactive
TLE3	0.652	-0.918	-0.86	inactive
CFAP57	-0.261	0.687	0.0448	inactive
LOC388227 (retired record)	-0.797	-0.518	-0.339	inactive
LOC440450 (retired record)	0.815	0.683	0.866	inactive
RPL4P5	-0.358	-0.509	-0.591	inactive
LINC01116	-0.861	-0.843	-0.866	inactive
CLEC12A	-0.108	0.589	-0.0865	inactive
SLC39A2	0.203	0.0583	0.152	inactive
HAPSTR1	5.1	2.53	3.5	active
BMS1P21	0.62	0.178	0.226	inactive
ZNF532	0.384	0.35	0.361	inactive
SERPINB11	1.16	0.692	0.772	inactive
KCTD13	-1.61	-1.42	-0.964	inactive
C5orf34	0.0183	0.0413	0.429	inactive
CD151	-1.47	-0.68	-1.38	inactive
UBE2V2	-0.779	-0.49	-1.64	inactive
SPAST	-0.928	0.695	0.0557	inactive
TEKT1	-1.6	-1.29	-0.118	inactive
QTRT2	-0.528	-0.653	0.29	inactive
C11orf96	0.425	0.404	0.675	inactive
NSUN4	-0.757	-0.306	-0.635	inactive
ZNF75D	0.901	0.861	0.514	inactive
DSTN	0.265	-0.858	0.773	inactive
LTBP2	-1.17	-1.66	-1.77	inactive
CHIA	-1.04	0.729	-0.0546	inactive
CDK2AP2P3	-1.09	-0.514	-0.639	inactive
LINC00544	0.578	1.12	0.844	inactive
VNN2	-2.26	-1.1	-1.3	inactive
TMEM79	-0.0382	0.133	-0.315	inactive
ZNF71	0.418	0.212	0.145	inactive
OR10J5	0.981	0.25	-0.0897	inactive
E2F7	0.395	1.5	1.57	inactive
ZDHHC8	0.205	0.732	-0.106	inactive
EEPD1	-0.333	-0.329	0.00986	inactive
PALS2	-0.369	-1.19	-0.739	inactive
LCAT	-0.169	-0.396	-0.588	inactive
LOC440610 (retired record)	0.734	0.341	0.319	inactive
TCEA1P3	0.738	0.761	0.496	inactive
METTL23	-0.677	-0.394	0.778	inactive
TMEM140	-1.28	-0.886	-1.55	inactive
C19orf31 (retired record)	-0.299	-0.817	-1.13	inactive

Laid out differently: results already given.
Gene | robust z-score, replicate 1 | robust z-score, replicate 2 | robust z-score, replicate 3 | call
EEPD1 | -0.333 | -0.329 | 0.00986 | inactive
PALS2 | -0.369 | -1.19 | -0.739 | inactive
LCAT | -0.169 | -0.396 | -0.588 | inactive
LOC440610 (retired record) | 0.734 | 0.341 | 0.319 | inactive
TCEA1P3 | 0.738 | 0.761 | 0.496 | inactive
METTL23 | -0.677 | -0.394 | 0.778 | inactive
TMEM140 | -1.28 | -0.886 | -1.55 | inactive
